In all, about 53,000 sequences went through this assay and about 3,700 (7%) were called active.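 How the source made its calls: active means gene knockdowns whose robust z-score for IL-1 alpha signal is at least 2 or at most -2, so actives lie on both sides; inactive means the rest.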 The list shows a part of the results.
test: Components of the Cytosolic LPS Sensing Pathway: Gene Identification via Genome-wide siRNA Screen; details: RAW264.7 macrophages, IL-1a HTRF, actives lie on both sides, screened at 100 nM (by protocol), cells primed 5 h with Pam3CSK4 first;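 further: robust z of the log signal after scaling to non-targeting control siRNA wells of the plate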
Outline: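 Using IL-1a HTRF as read-out, the screen measured release from RAW264.7 cells after 48h siRNA knockdown (100 nM), 5 h Pam3CSK4 priming and 24 h cytosolic LipidA. Values were expressed relative to negative-control wells as robust z-scores.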

Sequence	z-score
GCUAAUUAUUGAGUAUGCGTT against Klhl10	inactive: -0.77
CCAUGGCUUAAAAGCCGAATT against Mapt	inactive: 0.606
GUGUAUGCGCUGAUCCUAUTT against 1700020N01Rik	inactive: 0.181
GGUUAUGAUUGGUUUGAAGTT against Cisd2	inactive: -0.629
GGUUGGCGAGACUUCUACGTT against Pp2d1	inactive: 0.885
GGGAGCUAGCAAAAUCGGATT against Eif4g3	inactive: 0.714
GGAACUGCUCAUAAAAACATT against Evi2b	inactive: 0.0355
GGCGAUCCACAAGUACAAUTT against Polb	inactive: 0.947
GGACAAAAGAAAAGUAUCGTT against Cdx4	inactive: -1.13
GGUUAAGAUUCCAGAGCCATT against Prune1	inactive: -0.297
GCUAAUACUGAAAUCGAUGTT against Ccdc73	inactive: 1.02
GGGACUCUGAUGGUUUUGATT against Dapp1	inactive: 1.07
GCACCAUGUCAGGAAGUGUTT against Cd300a	inactive: -0.613
CCUAUGGAAGGUUUAAGAUTT against Ptpn21	inactive: 0.638
GGCUUCAGCAAAGACAAUGTT against Ache	inactive: -1.07
GCGAUUUUAACAUCUGGAATT against A930018P22Rik	inactive: 0.139
ACACCUGCCUGCAUCUACUTT against Tcp10a	inactive: 1.5
CCUGUUGCUAAUCUCACAATT against Fcgr3	inactive: 0.291
GGGAAGAGUUUCACGCUCATT against Runx3	inactive: 1.26
GCACGAUGUACCUGAAUCUTT against Ifitm5	inactive: 0.387
GGUCCAAGAGAAAUGUGUATT against Hacd4	active: -2.55
GCCAUUGGAAUUUUGAAAUTT against Cfap206	inactive: 0.514

Random excerpt: seven entries already listed
Sequence	z-score
GGUUAAGAUUCCAGAGCCATT against Prune1	inactive: -0.297
GCACCAUGUCAGGAAGUGUTT against Cd300a	inactive: -0.613
GGGAGCUAGCAAAAUCGGATT against Eif4g3	inactive: 0.714
GCUAAUUAUUGAGUAUGCGTT against Klhl10	inactive: -0.77
GGUUAUGAUUGGUUUGAAGTT against Cisd2	inactive: -0.629
GUGUAUGCGCUGAUCCUAUTT against 1700020N01Rik	inactive: 0.181
CCAUGGCUUAAAAGCCGAATT against Mapt	inactive: 0.606

Next records

Sequence	z-score
GGCACAAGUAACAGGCUCATT against Egfr	inactive: -1.96
GGUGGUAGAUAUUGUCCAUTT against Olfr420	inactive: 0.488
GGUCUAGGUCUGAAGAUCCTT against Stxbp4	inactive: 1.51
GGAACAAAGAUUGAGAGAATT against Sltm	inactive: -1.62
GCCUUUCAUGGAUUAACCUTT against Gsdmc	active: -2.03
GGAUCCAGAGGCUGUUAAATT against Casp9	inactive: -0.813
GUCUUUUUUCUUUUUGACCTT against Olfr168	inactive: -0.96
CCAGCAUAUCUACUGUUCUTT against Vmn1r235	inactive: 0.503
GGCGACCUUUGUGUUUCCUTT against Vwa5a	inactive: -0.419
GGGAUGCUUUGUGGCUGUATT against Olfr837	inactive: -0.143
GGUCUAUGCGAUGCUAUACTT against Sarm1	inactive: -0.508
GGGAUGUUCUAUGUAAUAATT against Cog4	inactive: 0.627
GCCAAAUUUGUCAUCCACUTT against Macroh2a2	inactive: -0.906
GGAGCUGGAGAAGUUACUUTT against Amigo3	active: 2.06
CCAUCAAGAGGUAUAAUCUTT against Flad1	inactive: 1.75
CCUAAGAUAGACUAAAUCGTT against 1700001G17Rik	inactive: 0.171
GCAACCAUCCAACAACCUGTT against Prkca	inactive: 0.94
GGCCAUCUGUGAAAAAUUCTT against Dhcr24	inactive: -1.06
GCUCUUGUAAAUUUGUGAATT against Usp10	inactive: -0.331
GGAGCUAAGUCGAAGCUUCTT against Gmppa	inactive: 0.0448
GGUCCAUUUUUUGGUGUGCTT against BC051665	inactive: -0.46
CCUGCCCUCUUUUAAAUAATT against Ap3s1	inactive: -1.96

Sequence	z-score
GGAGACUAAUGAACAGAAATT against Fgd4	inactive: 0.39
GCUCUCUGAAAGAGUAUUGTT against Khdrbs2	inactive: 0.963
GCCCAAUUGGCUUUUGUUATT against Olfr1305	inactive: 0.736
CGGAGUAAACAAUACAGUCTT against Gnmt	active: 2.26
CCUUUUAGCUCUGUGUAUUTT against Gldc	inactive: -0.0983
CGUGGAUUACCACCCUAAGTT against Klrc2	inactive: -0.129
GGACGUGAAUGUGUUUGACTT against Cyp26b1	inactive: 0.795
GGCUUGGUGGGACAGAUAUTT against Ccdc51	inactive: -1.82
GGAGCAGGAAGUAUGAAUGTT against Gpr39	inactive: -0.0371
GGAGCAGUCUAUCUUUGGUTT against Dbn1	inactive: 1.3
GGACAAUUGAAUACCUAGATT against Hadha	inactive: 0.151
CCUGAGUCUCGGUUCACAATT against Kif12	active: -2.13
GGAUUAAGAAAGAAACAGGTT against Zfp438	inactive: -0.387
GGAAGCGUAUUACGAAAGATT against Prpf18	inactive: 0.565
GCUCAUGACCCAUAUGUGGTT against Cryaa	inactive: -0.933
GCGAGUUAUUUGGCUCCGATT against Pla2g4e	inactive: -1.27
GGAGGAGUUUGACUUCGACTT against Alox12	inactive: -0.109
GGUUCGUCGCCUUUUAGGGTT against Alx4	active: 3.74
GGAAGGAAGGAAUAAAACUTT against Fitm2	inactive: -0.981
ACAUACCCGUGAAUGGCUCTT against Ffar1	inactive: -0.757
GGUUGGAGUUCAACAGAUGTT against Ksr1	inactive: 0.874
GGCGGGAGUACUAAAUGAATT against Eppk1	inactive: 1.07

Sequence	z-score
CGGCAAUUCCAGAAAUGAUTT against Rcc1l	inactive: -1.67
GCUUCAAACUAGUUCCAAATT against H1f8	inactive: 1.65
GCAGAUUCUCCGAUUACACTT against Fbxw8	inactive: -0.294
GCAAUUAAGGUAGAGUCUGTT against Rassf1	inactive: -1.81
GGACAGCAUCCGAAAAGUGTT against Thbs1	inactive: -1.47
GGAAGACAAUAAGAAGUGGTT against Niban2	inactive: -0.576
CCUAUUUGGCCAUUAUCCATT against Atxn7l1	inactive: 0.848
GGAGCUUACUACAAAGCUATT against Gnb4	inactive: 0.529
GAAGUCCACUGAACUUCUGTT against H3f3a	inactive: 0.856
GGAAGAGGUCUUGAUCCACTT against Klhl22	inactive: -1
GGAUGUAUGCCAAAGAAUUTT against Fmo5	inactive: -0.0456
GGUUUAAGAAAAAAGGAGCTT against Rab43	inactive: -0.182
GAAACUUAGGGAAACACUATT against Cux1	inactive: 0.129
GGACUGAGGAGAGCAAUAUTT against Cts6	inactive: -1.29
GGGUUAAUGCAGCUCACGUTT against Lrrtm1	inactive: 0.425
CCAUUCAUUUUUGAUGACCTT against Tlr3	inactive: -0.144
GGUUUUAGACAUUCAGAACTT against Ago4	inactive: 0.408
GGAUGAUGAAAAAAAGAACTT against Fam228b	inactive: -0.058
CGUGUUCUUGCUCAAGGAGTT against Rilp	inactive: -0.229
GGAGAGACGUAAGAGGCGATT against Zrsr2	inactive: 0.0858
GCAGUCUUCUUAGCUAUAATT against Zkscan2	inactive: -1.29
CCGCAUUUCAGACAUAGGCTT against Olfr248	inactive: -0.729

Sequence	z-score
CGAGUUCGGUAUGAGUGGATT against Clptm1	inactive: -0.858
GGGCAAUGAUUUAUACCAUTT against Atp5b	inactive: 0.257
CGCGACAGAAUCAGUACAATT against Hnf4g	active: 2.17
GGAGCAUCACUCUUAACAUTT against Krt71	inactive: 1.58
AGGAAAGAAAAUAUGCUGATT against Cox17	inactive: 1.12
GGACUCUUUUCUACGUGGATT against Klhl1	active: 2.54
GGACAGUAGUUCUUUAUCUTT against Gpalpp1	inactive: -0.815
GGACGCAGACAGGACAAAATT against Parp2	active: 2.16
GGUGAAAUUUGUCAUGGUCTT against Trappc2l	inactive: -0.909
GGGACAACACAUUAACUUATT against Uckl1	inactive: 1.41
CCUUGUUGUUUGUCUCGACTT against Ern1	inactive: -1.21
CCUGCUGGUAUAGAGUAUGTT against Eps8l2	inactive: -0.172
GGACUAGAAGAUCUACACUTT against Olfr67	inactive: -0.921
CGACCACAUUAUUGGGUUUTT against Senp8	active: 2.62
CGCAGGUAUACAGGACUGCTT against Rhox8	active: 2.33
GGAUACACUGAUACUAUACTT against Pwp2	inactive: 0.403
GGGACUGUACUCAUUUCUATT against Rnf138rt1	inactive: -0.67
GCUGCUUGUUAAGCUUUUUTT against Nelfcd	inactive: -0.947
CCCAAGUGGUAAGAUUGGUTT against Rps3	inactive: 0.123

— PubChem BioAssay AID1508600 (Functional Genomics Laboratory (NCATS/FGL), 2020)
